Reference: paper PMC5323164
Results are given in words; binding and its absence hold for the method and conditions named. In cells and extracts the contact can be indirect. Some binding calls cover weakened binding; strength is not graded here.

Protein sequences, listed by entry. Tags and fused reporters are not part of them. Residues count along the entry.
UniProt Q9BZS1, residues 1-417: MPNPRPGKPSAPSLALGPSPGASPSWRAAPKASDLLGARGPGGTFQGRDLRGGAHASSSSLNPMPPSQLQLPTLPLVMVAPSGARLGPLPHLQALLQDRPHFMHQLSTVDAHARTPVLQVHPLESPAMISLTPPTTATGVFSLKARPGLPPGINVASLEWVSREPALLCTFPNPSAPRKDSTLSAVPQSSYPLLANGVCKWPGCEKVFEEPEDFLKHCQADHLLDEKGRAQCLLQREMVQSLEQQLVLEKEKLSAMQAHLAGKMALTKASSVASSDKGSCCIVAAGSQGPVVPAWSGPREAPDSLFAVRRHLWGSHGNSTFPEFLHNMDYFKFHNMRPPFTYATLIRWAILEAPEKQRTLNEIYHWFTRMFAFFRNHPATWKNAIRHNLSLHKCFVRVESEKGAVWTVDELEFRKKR
UniProt Q16665: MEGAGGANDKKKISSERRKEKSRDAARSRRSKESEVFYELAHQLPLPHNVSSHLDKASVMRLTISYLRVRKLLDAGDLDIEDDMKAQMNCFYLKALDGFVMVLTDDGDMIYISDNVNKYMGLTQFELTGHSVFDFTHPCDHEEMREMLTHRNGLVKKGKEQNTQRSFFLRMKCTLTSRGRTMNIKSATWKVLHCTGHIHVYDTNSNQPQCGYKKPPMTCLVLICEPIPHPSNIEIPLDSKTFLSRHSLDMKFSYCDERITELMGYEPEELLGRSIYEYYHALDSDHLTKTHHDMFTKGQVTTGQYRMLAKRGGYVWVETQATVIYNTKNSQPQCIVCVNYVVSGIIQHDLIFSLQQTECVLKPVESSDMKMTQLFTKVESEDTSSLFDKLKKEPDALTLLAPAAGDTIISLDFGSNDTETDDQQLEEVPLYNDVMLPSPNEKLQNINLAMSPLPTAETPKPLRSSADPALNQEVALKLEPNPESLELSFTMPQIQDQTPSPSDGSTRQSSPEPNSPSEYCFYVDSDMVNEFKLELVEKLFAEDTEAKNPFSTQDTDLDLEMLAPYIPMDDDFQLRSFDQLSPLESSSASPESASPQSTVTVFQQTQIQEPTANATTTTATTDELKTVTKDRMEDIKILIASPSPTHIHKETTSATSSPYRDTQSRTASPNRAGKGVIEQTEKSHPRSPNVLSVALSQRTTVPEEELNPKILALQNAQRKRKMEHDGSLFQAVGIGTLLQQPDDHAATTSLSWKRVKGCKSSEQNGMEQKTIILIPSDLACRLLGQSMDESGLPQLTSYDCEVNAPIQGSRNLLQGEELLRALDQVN

Key:
[1] = target: Foxp3 expressed from plasmid pCMV3-N-HA-Foxp3 (UniProt Q9BZS1); test: co-IP; T24-P cells transfected with Foxp3 plasmid or control, with or without MG132; lysates immunoprecipitated with anti-Foxp3 antibody, western blot for Foxp3 and HIF-1α
[2] = target: forkhead box P3 (Foxp3) protein (human (endogenous in T24-B and HeLa)) (UniProt Q9BZS1); test: co-IP; lysates of T24-B cells (the text also names HeLa) kept in normoxia or hypoxia (1% O2) for the indicated times; immunoprecipitated with anti-Foxp3 antibody, western blot for Foxp3 and HIF-1α

binding [1]: binds
binding [2]: binds
Substance: Hypoxia-inducible factor-1 alpha (HIF-1α) protein (from UniProt Q16665 1-826)
